{"source": "patent US20190030126A1", "about": "“Inhibitors of the Interaction BCL-2 L10 / IP3 Receptors” (Universite Claude Bernard - Lyon 1, priority 2016, published 2019)", "key": {"HA-Beclin1": {"target": "HA-Beclin1", "assay": "streptavidin pull-down from extracts of transfected HeLa cells"}, "[1]": {"target": "Flag-Nrz (ortholog from zebrafish) (zebrafish (Danio rerio))", "assay": "streptavidin pull-down from extracts of transfected HeLa cells"}}, "note": "Results are given in words; binding and its absence hold for the method and conditions named. Binding seen in cells or lysates may run through a third protein.", "data": [{"binder": "MADPLRERTELLLADYLGYCARE (biotin-labelled (position not given))", "note": "[biotin-labelled Nrh 1-23 wild-type peptide]", "values": [{"measurement": "binding", "setting": "HA-Beclin1", "result": "no binding (tested: 5 µg of biotin-labelled peptide)"}, {"measurement": "binding", "setting": "[1]", "result": "no binding (tested: 5 µg of biotin-labelled peptide)"}]}]}
